At least one peptide structure holds a part that was inferred or is arguable (an end, a ring closure or a residue).
Tests used:
[1] = Antifungal / biological activity, organisms not specified; format: cell-based; details: compared with natural L-Arg-D-allothre-L-phe
Candida albicans = assay: Growth inhibition / minimal inhibitory concentration in yeast nitrogen base medium; format: cell-based; details: versus free p-F-DL-Phenylalanin, for 80% of the tested isolates

Structure (SMILES)	biologische Aktivität [1]	größere Wirksamkeit auf der molaren Grundlage (Candida albicans)
N=C(N)NCCC[C@H](N)C(=O)NC(Cc1ccc(O)c(F)c1)C(=O)N[C@@H](Cc1ccccc1)C(=O)O (mixture of isomers) [Verbindung 2, L-Arginyl-DL-(m-fluortyrosyl)-L-phenylalanin]	vergleichbare biologische Aktivität	–
N=C(N)NCCC[C@H](N)C(=O)NC(Cc1ccc(F)cc1)C(=O)N[C@@H](Cc1ccccc1)C(=O)O (stereo partly drawn) [Verbindung 1, L-Arginyl-DL(p-fluorphenylalanyl)-L-phenylanilin]	vergleichbare biologische Aktivität	> 20 fach
